Measured values from patent US20240360194A1, “New Peptides as Potent and Selective GIP Receptor Agonists” (Sanofi, priority 2021, published 2024).
At least one structure is not confirmed: it was looked up by name or label, or the drawing left a doubt. Numbered stars: 1 amine (or outer) side, 2 acyl side, 3 side chain; on linkers, the order of the positions; unused ones are H or OH. Square brackets hold non-standard residues; d marks the D form. Side chains are listed from the residue outwards. Peptide text beside a SMILES is read from it. * marks the point of attachment. ξ: configuration not given here. C18 diacid = O=C(O)CCCCCCCCCCCCCCCCC(=O)*; γGlu = O=C(O)[C@H](CCC(=O)[*:2])N[*:1]; ξIva = CCC(C)(N)C(=O)O; AEEA = NCCOCCOCC(=O)O; Aib = CC(C)(N)C(=O)O

By UniProt entry, the sequences of proteins in these tests, tags left out. Residues count along the entry.
UniProt P43220, 24-463: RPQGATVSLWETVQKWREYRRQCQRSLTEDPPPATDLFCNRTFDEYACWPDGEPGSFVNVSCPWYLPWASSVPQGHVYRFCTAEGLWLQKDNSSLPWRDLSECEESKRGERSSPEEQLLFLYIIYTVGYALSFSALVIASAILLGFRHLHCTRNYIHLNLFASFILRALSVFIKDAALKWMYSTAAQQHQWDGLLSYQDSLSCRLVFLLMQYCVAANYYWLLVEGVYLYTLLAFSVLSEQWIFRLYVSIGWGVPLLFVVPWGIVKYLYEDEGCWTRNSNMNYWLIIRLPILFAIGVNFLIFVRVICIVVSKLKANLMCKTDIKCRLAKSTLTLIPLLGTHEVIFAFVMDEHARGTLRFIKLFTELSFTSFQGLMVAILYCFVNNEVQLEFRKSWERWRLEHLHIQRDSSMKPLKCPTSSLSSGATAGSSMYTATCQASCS

What was measured:
[1] = target: T1, human GIP receptor (Homo sapiens, UniProt P48546); test: In vitro cellular cAMP assay for GIP receptor efficacy (human adipocytes); assay type: cell-based; settings: read-out: hGIPR EC50
T1 construct: human adipocytes endogenously expressing the human GIP receptor; host or cells: human preadipocytes (Lonza) differentiated to adipocytes
T1 sequence (P48546 22-466): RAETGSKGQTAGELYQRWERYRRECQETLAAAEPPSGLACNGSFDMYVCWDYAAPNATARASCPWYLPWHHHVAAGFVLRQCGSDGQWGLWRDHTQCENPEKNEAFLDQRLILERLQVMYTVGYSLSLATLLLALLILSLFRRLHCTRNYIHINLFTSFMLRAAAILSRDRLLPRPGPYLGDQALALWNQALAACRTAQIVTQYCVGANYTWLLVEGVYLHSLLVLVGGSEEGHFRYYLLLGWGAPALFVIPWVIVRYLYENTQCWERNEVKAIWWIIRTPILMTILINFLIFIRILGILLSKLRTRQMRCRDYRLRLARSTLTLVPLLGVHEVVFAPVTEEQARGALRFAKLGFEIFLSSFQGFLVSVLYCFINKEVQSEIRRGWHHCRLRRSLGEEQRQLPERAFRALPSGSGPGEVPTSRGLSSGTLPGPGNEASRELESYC
Experimental: For this, one vial of human preadipocytes (˜10^6 cells; Lonza) was thawed in a T-75 cell culture dish. The cells were cultivated at 37° C., 5% CO2, 95% humidity in Preadipocyte Growth Medium with Supplement Mix from Promo Cell.
After 3 days, the cells were washed with PBS and 1.5 ml Trypsin, incubated for 4 min, then resuspended in medium, centrifugated for 10 min @ 300 rcf RT, resuspended again and distributed to four T-75 cell culture dishes. Again, the cells were cultivated at 37° C., 5% CO2, 95% humidity.
After 5 days, the cells were washed with PBS and 1.5 ml Trypsin, incubated for 4 min, then resuspended in medium, centrifugated for 10 min @ 300 rcf RT, resuspended again and sawn in T-75 dishes (2.5×10^6 cells per dish) in 15 ml Differentiation medium each. […]
The cAMP generated following test compound stimulation was determined using a kit from Cisbio Corp. based on HTRF (Homogenous Time Resolved Fluorescence). […]
The cAMP content of cells was determined using a kit from Cisbio Corp. based on HTRF (Homogenous Time Resolved Fluorescence).
After addition of HTRF reagents diluted in lysis buffer (kit components), the plates were incubated for 1 h, followed by measurement of the fluorescence ratio at 665/620 nm.

[2] = target: human GLP-1 receptor (hGLP-1R) (Homo sapiens, UniProt P43220); test: In vitro cellular cAMP assay for GLP-1 receptor efficacy (HEK-293 cell line over-expressing receptor); assay type: cell-based; settings: read-out: EC50 hGLP-1R 0.1% BSA, HEK-293, 0.1% BSA

SMILES: CC[C@H](C)[C@H](NC(=O)[C@H](Cc1ccccc1)NC(=O)[C@H](CCC(=O)O)NC(=O)[C@H](CCC(=O)O)NC(=O)[C@H](CCC(N)=O)NC(=O)[C@H](Cc1c[nH]cn1)NC(=O)[C@@H](NC(=O)[C@H](CCCNC(=N)N)NC(=O)[C@H](CC(=O)O)NC(=O)[C@H](CCCCNC(=O)COCCOCCNC(=O)COCCOCCNC(=O)CC[C@H](NC(=O)CCCCCCCCCCCCCCCCC(=O)O)C(=O)O)NC(=O)C(C)(C)NC(=O)[C@@H](NC(=O)[C@H](CO)NC(=O)[C@H](CC(C)C)NC(=O)[C@H](CC(=O)O)NC(=O)[C@H](CO)NC(=O)[C@@H](NC(=O)C(C)(CC)NC(=O)[C@@H](NC(=O)CNC(=O)[C@H](CCC(=O)O)NC(=O)C(C)(C)NC(=O)[C@@H](N)Cc1ccc(O)cc1)[C@@H](C)O)[C@@H](C)CC)[C@@H](C)CC)[C@@H](C)CC)C(=O)N[C@@H](CCC(=O)O)C(=O)N[C@@H](Cc1c[nH]c2ccccc12)C(=O)N[C@@H](CC(C)C)C(=O)N[C@@H](CC(C)C)C(=O)N[C@@H](C)C(=O)N[C@@H](CCC(N)=O)C(=O)NCC(=O)N1CCC[C@H]1C(=O)N[C@@H](CO)C(=O)N[C@@H](CO)C(=O)NCC(=O)N[C@@H](C)C(=O)N1CCC[C@H]1C(=O)N1CCC[C@H]1C(=O)N1CCC[C@H]1C(=O)N[C@@H](CO)C(N)=O (stereo partly drawn) [SEQ ID NO: 24, H2N-Y-Aib-E-G-T-Iva-I-S-D-L-S-I-Aib-K[{AEEA}2-gGlu-C18OH]-DRIHQEEFIEWLLAQGPSSGAPPPS-NH2] (H-Y[Aib]EGT[ξIva]ISDLSI[Aib]K([AEEA-AEEA-γGlu-C18 diacid])DRIHQEEFIEWLLAQGPSSGAPPPS-NH2)
- EC50 [1]: 200 pM
- EC50 [2]: > 10000 pM
